Results on 30 targets are retold here after the supplement of paper PMC10849652.

The chains behind the UniProt entries cited, without tags or fusion partners. Where a name states a change or a piece, a line headed by the entry shows the natural chain unless it says otherwise.
UniProt Q86U44, whole entry, looked up: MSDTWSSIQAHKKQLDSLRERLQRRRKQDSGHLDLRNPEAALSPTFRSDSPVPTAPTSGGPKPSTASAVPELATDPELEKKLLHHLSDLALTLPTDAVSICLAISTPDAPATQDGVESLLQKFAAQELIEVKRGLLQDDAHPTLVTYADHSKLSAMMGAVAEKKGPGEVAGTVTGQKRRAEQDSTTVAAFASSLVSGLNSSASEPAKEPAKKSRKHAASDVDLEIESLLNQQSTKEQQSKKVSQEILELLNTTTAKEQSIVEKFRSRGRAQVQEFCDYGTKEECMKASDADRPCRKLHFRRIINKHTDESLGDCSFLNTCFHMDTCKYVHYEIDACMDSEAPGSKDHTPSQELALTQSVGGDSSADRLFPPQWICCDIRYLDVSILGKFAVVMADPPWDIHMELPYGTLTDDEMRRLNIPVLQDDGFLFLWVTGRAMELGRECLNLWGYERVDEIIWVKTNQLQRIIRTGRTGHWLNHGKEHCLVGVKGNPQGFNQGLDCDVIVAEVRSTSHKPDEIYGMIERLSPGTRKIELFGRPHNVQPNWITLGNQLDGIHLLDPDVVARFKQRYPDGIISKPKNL
UniProt Q9H204: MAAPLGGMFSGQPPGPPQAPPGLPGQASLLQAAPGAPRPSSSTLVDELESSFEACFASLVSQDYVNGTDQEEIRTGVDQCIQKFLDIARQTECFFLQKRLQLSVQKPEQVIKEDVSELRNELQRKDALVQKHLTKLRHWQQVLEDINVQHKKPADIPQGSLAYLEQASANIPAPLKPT
UniProt Q7Z434: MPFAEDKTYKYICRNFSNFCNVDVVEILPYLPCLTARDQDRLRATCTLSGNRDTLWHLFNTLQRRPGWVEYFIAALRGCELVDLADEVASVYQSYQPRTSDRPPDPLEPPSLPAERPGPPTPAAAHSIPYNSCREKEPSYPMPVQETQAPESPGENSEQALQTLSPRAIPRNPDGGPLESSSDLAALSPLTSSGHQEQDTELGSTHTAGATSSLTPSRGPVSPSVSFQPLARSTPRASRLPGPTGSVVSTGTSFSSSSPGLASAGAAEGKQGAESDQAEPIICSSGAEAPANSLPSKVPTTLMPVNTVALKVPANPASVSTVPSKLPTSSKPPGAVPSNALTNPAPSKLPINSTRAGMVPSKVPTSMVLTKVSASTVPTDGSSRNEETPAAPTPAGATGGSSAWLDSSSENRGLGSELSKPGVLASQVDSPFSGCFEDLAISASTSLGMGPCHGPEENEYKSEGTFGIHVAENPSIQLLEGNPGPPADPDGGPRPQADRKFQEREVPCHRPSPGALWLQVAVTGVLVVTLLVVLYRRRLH
UniProt Q9H7H0: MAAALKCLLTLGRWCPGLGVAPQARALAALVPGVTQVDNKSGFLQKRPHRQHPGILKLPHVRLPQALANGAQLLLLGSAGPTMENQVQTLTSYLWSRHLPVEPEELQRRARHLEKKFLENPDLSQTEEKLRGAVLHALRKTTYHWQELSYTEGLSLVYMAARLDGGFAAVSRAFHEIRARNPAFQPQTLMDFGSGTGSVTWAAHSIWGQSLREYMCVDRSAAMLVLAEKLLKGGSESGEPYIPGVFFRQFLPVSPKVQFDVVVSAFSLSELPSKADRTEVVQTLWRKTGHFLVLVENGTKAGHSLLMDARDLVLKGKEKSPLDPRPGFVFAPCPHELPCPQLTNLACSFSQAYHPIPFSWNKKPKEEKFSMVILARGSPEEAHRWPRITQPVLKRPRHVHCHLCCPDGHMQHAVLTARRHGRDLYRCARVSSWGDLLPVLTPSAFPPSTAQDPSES
UniProt Q8NI22: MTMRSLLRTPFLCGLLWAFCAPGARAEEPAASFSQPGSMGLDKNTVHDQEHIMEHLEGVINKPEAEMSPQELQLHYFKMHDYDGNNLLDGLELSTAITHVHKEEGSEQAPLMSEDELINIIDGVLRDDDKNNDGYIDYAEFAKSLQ
UniProt Q9NZL9, whole entry, looked up: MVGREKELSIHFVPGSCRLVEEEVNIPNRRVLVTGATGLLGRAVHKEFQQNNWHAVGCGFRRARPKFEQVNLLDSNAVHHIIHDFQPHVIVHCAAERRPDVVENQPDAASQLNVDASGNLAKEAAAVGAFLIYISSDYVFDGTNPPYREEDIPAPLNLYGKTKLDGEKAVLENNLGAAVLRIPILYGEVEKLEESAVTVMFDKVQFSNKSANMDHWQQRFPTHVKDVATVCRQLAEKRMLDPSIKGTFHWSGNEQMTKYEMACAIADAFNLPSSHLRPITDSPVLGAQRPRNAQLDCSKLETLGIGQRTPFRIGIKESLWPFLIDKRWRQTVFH
UniProt Q9NRN9: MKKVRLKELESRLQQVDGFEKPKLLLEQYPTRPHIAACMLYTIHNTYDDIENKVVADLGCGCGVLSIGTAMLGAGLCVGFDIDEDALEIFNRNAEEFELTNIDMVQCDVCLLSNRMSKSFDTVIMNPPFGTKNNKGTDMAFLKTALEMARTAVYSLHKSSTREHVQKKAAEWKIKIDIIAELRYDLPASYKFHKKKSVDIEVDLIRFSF
UniProt Q10469: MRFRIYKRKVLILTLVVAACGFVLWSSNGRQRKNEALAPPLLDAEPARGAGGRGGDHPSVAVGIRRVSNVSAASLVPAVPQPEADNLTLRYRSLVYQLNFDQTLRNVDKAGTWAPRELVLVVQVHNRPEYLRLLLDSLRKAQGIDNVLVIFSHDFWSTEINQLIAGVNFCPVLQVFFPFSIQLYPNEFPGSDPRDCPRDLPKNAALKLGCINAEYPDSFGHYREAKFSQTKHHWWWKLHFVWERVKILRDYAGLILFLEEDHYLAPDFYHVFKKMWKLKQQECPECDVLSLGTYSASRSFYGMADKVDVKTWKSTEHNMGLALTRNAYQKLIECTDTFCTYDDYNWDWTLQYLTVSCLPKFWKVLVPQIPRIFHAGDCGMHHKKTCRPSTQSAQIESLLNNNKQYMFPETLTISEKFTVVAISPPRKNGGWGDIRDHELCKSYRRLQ
UniProt Q9UHV7: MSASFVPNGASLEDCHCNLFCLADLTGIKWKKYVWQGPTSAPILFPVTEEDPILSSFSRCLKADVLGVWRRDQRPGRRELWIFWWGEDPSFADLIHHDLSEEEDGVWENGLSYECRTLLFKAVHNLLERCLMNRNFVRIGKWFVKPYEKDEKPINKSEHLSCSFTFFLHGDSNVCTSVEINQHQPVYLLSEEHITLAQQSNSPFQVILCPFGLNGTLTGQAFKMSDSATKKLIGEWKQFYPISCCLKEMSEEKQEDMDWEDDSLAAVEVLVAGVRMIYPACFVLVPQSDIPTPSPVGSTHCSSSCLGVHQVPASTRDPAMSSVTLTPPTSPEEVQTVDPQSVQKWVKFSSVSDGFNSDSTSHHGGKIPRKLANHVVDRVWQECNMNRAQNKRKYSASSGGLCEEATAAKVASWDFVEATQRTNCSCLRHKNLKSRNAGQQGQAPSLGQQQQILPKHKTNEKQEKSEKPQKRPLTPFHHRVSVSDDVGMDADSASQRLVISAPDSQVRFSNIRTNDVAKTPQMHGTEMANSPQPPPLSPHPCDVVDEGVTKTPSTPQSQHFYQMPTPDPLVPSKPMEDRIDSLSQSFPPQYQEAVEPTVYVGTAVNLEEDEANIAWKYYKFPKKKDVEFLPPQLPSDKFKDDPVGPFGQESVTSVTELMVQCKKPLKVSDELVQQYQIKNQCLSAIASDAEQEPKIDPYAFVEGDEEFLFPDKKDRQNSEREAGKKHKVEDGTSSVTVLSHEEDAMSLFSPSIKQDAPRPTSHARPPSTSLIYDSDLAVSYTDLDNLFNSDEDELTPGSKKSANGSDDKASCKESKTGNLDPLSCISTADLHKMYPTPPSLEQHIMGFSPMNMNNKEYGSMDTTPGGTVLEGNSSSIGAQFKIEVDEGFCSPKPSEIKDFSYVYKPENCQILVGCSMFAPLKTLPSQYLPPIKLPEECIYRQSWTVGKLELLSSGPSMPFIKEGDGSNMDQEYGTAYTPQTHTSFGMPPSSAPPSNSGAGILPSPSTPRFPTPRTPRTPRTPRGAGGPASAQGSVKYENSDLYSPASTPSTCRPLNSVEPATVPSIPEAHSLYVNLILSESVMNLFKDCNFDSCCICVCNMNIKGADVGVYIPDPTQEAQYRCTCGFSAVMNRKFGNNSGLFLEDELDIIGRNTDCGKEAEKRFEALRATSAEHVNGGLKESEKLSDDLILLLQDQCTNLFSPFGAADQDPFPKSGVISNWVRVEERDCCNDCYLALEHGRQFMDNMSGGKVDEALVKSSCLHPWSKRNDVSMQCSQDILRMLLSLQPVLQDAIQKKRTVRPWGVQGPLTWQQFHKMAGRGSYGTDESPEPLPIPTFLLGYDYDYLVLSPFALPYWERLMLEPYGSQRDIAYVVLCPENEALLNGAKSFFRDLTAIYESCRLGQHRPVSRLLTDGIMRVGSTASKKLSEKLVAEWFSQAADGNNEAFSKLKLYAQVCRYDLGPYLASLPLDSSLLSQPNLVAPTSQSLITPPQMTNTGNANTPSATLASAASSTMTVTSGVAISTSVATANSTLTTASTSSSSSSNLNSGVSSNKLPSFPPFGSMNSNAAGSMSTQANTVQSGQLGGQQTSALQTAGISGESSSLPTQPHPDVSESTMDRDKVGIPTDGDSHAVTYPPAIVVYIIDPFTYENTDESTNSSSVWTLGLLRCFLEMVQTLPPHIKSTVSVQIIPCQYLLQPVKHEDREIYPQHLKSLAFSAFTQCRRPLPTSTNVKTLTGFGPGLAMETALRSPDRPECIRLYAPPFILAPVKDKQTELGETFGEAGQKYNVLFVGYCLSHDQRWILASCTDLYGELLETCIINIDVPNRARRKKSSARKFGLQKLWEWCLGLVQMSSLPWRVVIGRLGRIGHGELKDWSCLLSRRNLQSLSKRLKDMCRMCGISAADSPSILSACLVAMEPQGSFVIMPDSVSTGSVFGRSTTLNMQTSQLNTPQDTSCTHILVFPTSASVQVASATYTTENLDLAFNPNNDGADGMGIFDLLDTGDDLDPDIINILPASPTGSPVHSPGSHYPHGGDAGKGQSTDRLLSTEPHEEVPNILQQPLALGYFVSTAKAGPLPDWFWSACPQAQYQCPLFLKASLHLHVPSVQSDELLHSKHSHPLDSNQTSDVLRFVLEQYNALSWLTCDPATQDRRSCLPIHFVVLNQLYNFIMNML
UniProt Q9GZU1, whole entry, looked up: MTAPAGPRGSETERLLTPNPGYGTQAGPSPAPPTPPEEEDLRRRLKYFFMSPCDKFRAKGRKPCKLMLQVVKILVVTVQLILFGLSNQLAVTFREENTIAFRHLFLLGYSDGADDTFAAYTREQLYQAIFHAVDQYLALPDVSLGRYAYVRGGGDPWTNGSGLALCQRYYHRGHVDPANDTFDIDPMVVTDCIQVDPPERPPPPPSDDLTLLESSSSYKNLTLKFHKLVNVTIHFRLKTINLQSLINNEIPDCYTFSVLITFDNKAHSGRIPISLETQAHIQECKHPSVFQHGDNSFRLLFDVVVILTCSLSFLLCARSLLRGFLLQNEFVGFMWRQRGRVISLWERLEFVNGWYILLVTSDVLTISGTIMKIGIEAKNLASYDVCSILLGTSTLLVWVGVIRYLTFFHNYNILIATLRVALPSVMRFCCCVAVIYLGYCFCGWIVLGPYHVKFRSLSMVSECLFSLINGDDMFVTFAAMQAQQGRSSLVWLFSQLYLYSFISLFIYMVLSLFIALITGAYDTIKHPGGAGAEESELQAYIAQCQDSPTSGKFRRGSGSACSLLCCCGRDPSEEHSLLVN
UniProt Q9ULC4: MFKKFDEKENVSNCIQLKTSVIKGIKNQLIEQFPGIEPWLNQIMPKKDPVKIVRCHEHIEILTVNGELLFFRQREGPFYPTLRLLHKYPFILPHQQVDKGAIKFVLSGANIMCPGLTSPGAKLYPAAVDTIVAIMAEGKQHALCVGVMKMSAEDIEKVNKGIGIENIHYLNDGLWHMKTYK
UniProt Q16626: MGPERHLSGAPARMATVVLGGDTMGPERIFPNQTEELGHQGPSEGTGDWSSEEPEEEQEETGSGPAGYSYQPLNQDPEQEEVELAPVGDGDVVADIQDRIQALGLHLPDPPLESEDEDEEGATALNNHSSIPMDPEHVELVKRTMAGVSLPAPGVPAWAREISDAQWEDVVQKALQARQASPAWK
UniProt Q9BUE0: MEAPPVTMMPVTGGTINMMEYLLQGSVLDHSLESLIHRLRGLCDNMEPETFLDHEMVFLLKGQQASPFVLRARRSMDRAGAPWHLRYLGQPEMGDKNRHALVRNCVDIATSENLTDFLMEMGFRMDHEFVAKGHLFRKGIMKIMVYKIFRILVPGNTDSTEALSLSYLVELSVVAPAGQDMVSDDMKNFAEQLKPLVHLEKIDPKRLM
UniProt Q14696: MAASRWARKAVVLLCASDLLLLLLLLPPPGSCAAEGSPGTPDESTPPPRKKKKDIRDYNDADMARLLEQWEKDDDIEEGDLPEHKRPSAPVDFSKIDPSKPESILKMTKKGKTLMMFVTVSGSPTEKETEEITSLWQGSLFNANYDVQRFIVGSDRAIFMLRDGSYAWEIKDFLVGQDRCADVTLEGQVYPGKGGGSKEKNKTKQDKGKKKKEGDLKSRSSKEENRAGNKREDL

This is one part of the list.

Compound in this test: c1cn2cc(-c3ccc4cn[nH]c4c3)nc(Nc3ccc(N4CCOCC4)cc3)c2n1 [entospletinib]
The test is described as follows: log2 fold change, soluble protein after heating vs DMSO (PISA); higher = thermal stabilisation; K562 cells, 10 uM, 30 min; active = over 0.2 and 3.5 SD of the protein, either way, in both replicates (recomputed). The method, boiled down: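 Soluble protein was quantified by TMTpro 16plex LC-MS/MS after channel sums were equalised. It was obtained as the supernatant after 21,000xg for 90 min from pooled aliquots of K562 cells (2×10^6 cells/mL, 10 μM compound, 30 min) heated for 3 min across 48°C-58°C and extracted in PBS with 0.5% NP-40 at 4°C. Thermal stability values are relative to control samples and come from duplicates. They are given as log2 fold changes.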
Take METTL3 (UniProt Q86U44): the log2 fold change is inactive: -0.011.

On to MED28 (UniProt Q9H204), for which the log2 fold change was inactive: 0.007.

On to MCRIP2 (UniProt Q9BUT9), for which the log2 fold change is inactive: -0.011.

As to METTL16 (UniProt Q86W50), the log2 fold change is inactive: -0.046.

In the case of MCRIP1 (UniProt I3L4Q0), the log2 fold change was inactive: -0.019.

For MAVS (UniProt Q7Z434), the log2 fold change was inactive: -0.007.

Consider MGME1 (UniProt Q9BQP7), for which the log2 fold change is inactive: -0.018.

For METTL26 (UniProt Q96S19), the log2 fold change is inactive: 0.028.

As to METTL17 isoform 3 (UniProt Q9H7H0), the log2 fold change was inactive: -0.093.

Consider MCFD2 (UniProt Q8NI22), for which the log2 fold change is inactive: 0.033.

In the case of MERTK (UniProt Q12866), the log2 fold change is inactive: -0.089.

Consider MBOAT2 (UniProt Q6ZWT7), for which the log2 fold change is inactive: -0.058.

On to MAT2B (UniProt Q9NZL9), for which the log2 fold change was inactive: -0.008.

For METTL5 (UniProt Q9NRN9), the log2 fold change is inactive: 0.003.

On to MGAT2 (UniProt Q10469), for which the log2 fold change is inactive: 0.047.

In the case of MED13 (UniProt Q9UHV7), the log2 fold change was inactive: -0.176.

Take MCAM (UniProt P43121): the log2 fold change is inactive: -0.034.

MCM2 (UniProt P49736): the log2 fold change is inactive: -0.009.

For the target MCOLN1 (UniProt Q9GZU1), the log2 fold change was inactive: -0.072.

Consider MCTS1 isoform 3 (UniProt Q9ULC4), for which the log2 fold change was inactive: -0.008.

For the target MEA1 (UniProt Q16626), the log2 fold change was inactive: -0.095.

For MBOAT7 (UniProt Q96N66), the log2 fold change was inactive: -0.025.

With MED14 (UniProt O60244), the log2 fold change is inactive: 0.123.

Turning to MIB1 (UniProt Q86YT6), the log2 fold change is inactive: 0.016.

On to MBNL1 isoform 5 (UniProt Q9NR56), for which the log2 fold change was inactive: 0.

For the target MED18 (UniProt Q9BUE0), the log2 fold change was inactive: 0.073.

As to MESD (UniProt Q14696), the log2 fold change was inactive: 0.008.

In the case of MEAF6 isoform 3 (UniProt Q9HAF1), the log2 fold change was inactive: 0.004.

Turning to MFSD14B (UniProt Q5SR56), the log2 fold change is inactive: -0.037.

Turning to MDH2 (UniProt P40926), the log2 fold change is inactive: 0.032.
